Laboratory results from patent US20170247434A1.

Target: genogroup V norovirus (Norovirus genogroup V)
Experiment: direct ELISA, conditions as for FIG. 1A

B1: double A33L/Y100F mutein of Nano-85 (VHH)
VHH: DVQLVESGGGLVQPGGSLRLSCAASGSIFSIYLMGWYRQAPGKQRELVASISSGGGTNYADSVKGRFTISGDNAKNTVYLQMNSLKPEDTAVYYCKREDFSAYAPPSGSRGRGTQVTVSS
binding: binds

Results are given in words; binding and its absence hold for the method and conditions named. Binding can be weak; no strength is given.
